In all, about 220,000 compounds went through this assay and about 2,400 (1.1%) were called active. Inconclusive means that the source gave no clear call. Such entries were picked first, then a sample of the others. Calls come from the whole dose curve; as a rule, active = well fitted inhibition curve with a large enough effect; inconclusive = small, poorly fitted or top-dose-only effect, or effect the other way; inactive = no such curve, though single readings can be large or run the other way. Potencies of inconclusive entries are doubtful fits and often do not repeat.
Assay: qHTS Multiplex Assay to Identify Dual Action Probes in a Cell Model of Huntington: Aggregate Formation (GFP); note: nearly all actives have a fitted effect of over 60% in size
Conditions: PC12 HttQ103-GFP aggregates, Acumen cytometry, 40 h; activity change, negative = inhibition: at 46.1 µM (top of the series) unless noted
Procedure, shortened: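 Compounds (qHTS titration) were added to PC12 cells expressing an ecdysone-driven HTT exon 1 Q103–GFP fusion after induction with 100 nM tebufenozide. Aggregate formation was measured as GFP objects in cell lysates.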
% is set by controls: 0 for no effect and ±100 for the full control effect; potency is the fitted concentration of half-maximal effect.

SMILES	Potency	activity change, negative = inhibition
CC(C)CCNCC(O)CON=C1c2ccccc2-c2ccccc21 (stereo not drawn)	inconclusive: 14.1 µM [inhibitor, single point]	
COc1ccc(CCN2C(=O)C(O)=C(C(=O)c3ccco3)C2c2cccs2)cc1OC (stereo not drawn)	inactive	
O=C(CN(c1ccccc1)S(=O)(=O)c1ccccc1)N1CCN(Cc2ccc3c(c2)OCO3)CC1	inactive	
CNc1ccc(Br)cc(C(=O)/C=C/c2cccc(OC)c2)c1=O	inactive	
Cc1cccc(OCCNc2cc(N3CCN(C)CC3)ccc2[N+](=O)[O-])c1	inactive	
CN(C(=O)COC(=O)c1n[nH]c2ccccc12)c1ccccc1	inconclusive: 3.16 µM [activator, single point]	
Cc1nn(C)c(C)c1/C=C/C(=O)c1ccc(Cl)cc1Cl	inconclusive: 7.08 µM [inhibitor, partial curve, poor fit]	
O=C(Cc1cccs1)NCc1cccc(F)c1	inactive	
Cc1ccc(O)c(NC(=O)c2noc(C(C)C)c2[N+](=O)[O-])c1	inconclusive: 5.62 µM [activator, single point]	
COc1cc(NC(=O)c2ccccc2)cc(OC)c1	inconclusive: 35.5 µM [inhibitor, single point]	
CCOc1cc(C)c(S(=O)(=O)Nc2ccc(Cl)cn2)cc1C	inconclusive: 35.5 µM [inhibitor, single point]	
CC(C)c1cc(C(=O)O)n(-c2ccccc2)n1		inactive: 8.53% [at 9.22 µM]
COc1cc(C(=O)Nc2cccc(-c3cn4cccnc4n3)c2)cc(OC)c1OC	inconclusive: 4.47 µM [activator, single point]	
CC1=CC(C)(C)Nc2ccc(OC(=O)CN3C(=O)C4CCCCC4C3=O)cc21 (stereo not drawn)	inconclusive: 3.55 µM [activator, single point]	
COc1ccccc1CN(Cc1nc2ccccc2c(=O)[nH]1)S(=O)(=O)c1ccc2ccccc2c1	inactive	
CCC(C)Sc1nc2c(c(=O)[nH]c(=O)n2C)n1Cc1ccccc1Cl (stereo not drawn)	inconclusive: 1.26 µM [inhibitor, single point]	
O=C(Nc1ccc(Cl)cc1)C(c1ccccc1)N1CCOCC1 (stereo not drawn)	inactive	
COC(=O)c1cccc(-c2ccc(C(c3c(C)[nH][nH]c3=O)c3c(C)[nH][nH]c3=O)o2)c1	inactive	
O=C1CCC(=O)N1N1C(=O)C2C3c4ccccc4C(c4ccccc43)C2C1=O (stereo not drawn)	inconclusive: 0.562 µM [activator, full curve, poor fit]	
COc1ccc(C(=O)NCc2ccccc2OC)c(OC)c1	inconclusive: 22.4 µM [inhibitor, single point]	
Cc1cc(C)c2sc(N(CCN(C)C)C(=O)c3c(F)cccc3F)nc2c1	inconclusive: 35.5 µM [inhibitor, single point]	
O=C(Cc1cccs1)Nc1nc2c(ccc3ccccc32)s1	inactive	
Cc1ccc(S(=O)(=O)N2CCOCC2)cc1NC(=O)CSc1cccc[n+]1[O-]	inconclusive: 5.62 µM [inhibitor, single point]	
Cc1c(O)c(=O)ccn1C	inactive	
COc1ccccc1NS(=O)(=O)c1cc(NC(=O)c2ccncc2)ccc1N1CCOCC1	inactive	

SMILES	Potency	activity change, negative = inhibition
Cc1ccc(-c2nc3sc4c(N)ncnc4c3c3c2CCCC3)cc1	inactive	
COc1cc(CNCCN2CCOCC2)ccc1OCc1ccc(Cl)cc1Cl	inconclusive: 28.2 µM [inhibitor, single point]	
C[N+]1(CCOC(=O)C2(c3ccccc3)CCCC2)CCCCC1	inconclusive: 14.1 µM [inhibitor, partial curve]	
COc1ccc(-c2nnc(NC(=O)c3ccc(S(=O)(=O)N4CCc5ccccc5C4)cc3)o2)cc1	inactive	
CCCCCc1c(C)nc(NCc2ccccc2)[nH]c1=O	active: 31.6 µM	
O=C(NCCc1ccccc1)C(c1cccs1)N(C(=O)CCl)c1ccc(Cl)cc1 (stereo not drawn)	inconclusive: 35.5 µM [inhibitor, single point]	
CC(=O)Nc1ccc(C(=O)NCCCOC(C)C)cc1	inconclusive: 5.62 µM [activator, single point]	
Cc1nc(Nc2ccc3c(c2)OCCO3)c2oc3ccccc3c2n1	inconclusive: 35.5 µM [inhibitor, single point]	
Cc1ccc(NC(=O)OC(C)CNC(=O)Oc2cccc(C)c2)cc1 (stereo not drawn)	inactive	
c1ccc(CCNc2ncnc3sccc23)nc1	inconclusive: 35.5 µM [inhibitor, single point]	
O=C1C2C3c4ccccc4C(c4ccccc43)C2c2nc3ccccc3n21 (stereo not drawn)	inactive	
O=C(CSc1nnc2scc(-c3ccccc3)n12)N1CCN(Cc2ccccc2)CC1	inactive	
COc1ccc(CN(CC2CCCO2)S(=O)(=O)c2ccc(-n3cnnn3)c(OC)c2)cc1 (stereo not drawn)	inconclusive: 4.47 µM [activator, partial curve, poor fit]	
COc1ccccc1NS(=O)(=O)c1cc([N+](=O)[O-])ccc1N/N=C/c1sc(N2CCOCC2)nc1-c1ccccc1	inconclusive: 35.5 µM [inhibitor, single point]	
CCOc1cccc(C(=O)NC(=S)Nc2ccccc2)c1	inactive	
COC(=O)c1ccccc1Sc1c(/C=N/OC(=O)c2ccccc2)c(C(F)(F)F)nn1C	inconclusive: 14.1 µM [activator, single point]	
Cc1ccc2oc(-c3ccc(NC(=O)c4cccnc4)cc3)nc2c1	inconclusive: 35.5 µM [inhibitor, single point]	
CC#CCN1c2ccccc2[C@]23C[C@@H](C(=O)OC)N(C(=O)c4ccco4)C2=NC(C(=O)OC)=C(C(=O)OC)[C@H]13	inconclusive: 0.562 µM [inhibitor, single point]	
CCC(OC(=O)c1cccs1)C(=O)NCc1ccco1 (stereo not drawn)	inactive	
COc1cc2c(C(=O)Nc3ccc4c(c3)OCO4)cn(CC(C)C)c(=O)c2cc1OC	inactive	
Cc1cccc(OCCCCc2c(C)n[nH]c2C)c1C	inconclusive: 12.6 µM [inhibitor, partial curve, poor fit]	
Cc1ccc(NC(=O)NC2CCCCC2)cc1Cl	inconclusive: 3.55 µM [inhibitor, single point]	
CN(C)c1ccc(S(=O)(=O)N(C)C)cc1[N+](=O)[O-]	inconclusive: 35.5 µM [activator, single point]	
CC(=O)c1cc(F)c(N2CCN(C(=O)COc3ccc(F)cc3)CC2)cc1C	inconclusive: 35.5 µM [inhibitor, single point]	
O=C1c2ccccc2C(O)(c2ncc[nH]2)N1CCc1ccccc1 (stereo not drawn)	inactive	

SMILES	Potency	activity change, negative = inhibition
Cc1cc(C(=O)CCl)c(C)n1-c1cccc([N+](=O)[O-])c1	inconclusive: 15.8 µM [inhibitor, single point]	
O=C(CCC(=O)Nc1ccccc1)N/N=C/c1ccncc1	inconclusive: 17.8 µM [inhibitor, single point]	
CCCOc1cc(C)c(S(=O)(=O)NCCOC)cc1C	inconclusive: 3.98 µM [inhibitor, partial curve]	
O=C(O)c1ccccc1-c1ccccc1C(=O)NCCCO	inconclusive: 3.55 µM [inhibitor, single point]	
O=S(=O)(NC1CCCC1)c1ccc(S(=O)(=O)N(Cc2cccs2)CC2CCCO2)cc1 (stereo not drawn)	inconclusive: 35.5 µM [inhibitor, single point]	
CCCCN(CCCC)C(=S)N/N=C/c1c(C)[nH]n(-c2ccccc2)c1=O	active: 11.2 µM	
COc1ccc(NS(=O)(=O)c2ccc(O)c(NC(=O)c3ccc(S(=O)(=O)N4CCCCCC4)cc3)c2)cc1	inactive	
CCN(Cc1ccccc1)C(=O)COC(=O)c1n[nH]c2ccccc12	inconclusive: 0.562 µM [inhibitor, full curve, poor fit]	
CCN(CCCNC(=O)COc1cc(=O)n(CC)c2ccccc12)c1ccccc1	inconclusive: 2 µM [activator, partial curve]	
O=S(=O)(N/N=C/c1ccc(Cl)cc1)c1ccc(Cc2ncc(C(F)(F)F)cc2Cl)s1	inactive	
CS/C(=C\[N+](=O)[O-])Nc1ccc(Cl)cc1	inconclusive: 31.6 µM [inhibitor, single point]	
COC(=O)c1sc(SC)c2c1CC(C)(C)C/C2=N/O		inactive: -32.5% [at 9.22 µM]
CCOCCc1nnc(NC(=O)C(C)Oc2ccccc2)s1 (stereo not drawn)	inconclusive: 11.2 µM [activator, partial curve]	
CN(C(=S)Nc1ccc(Oc2ccccc2)cc1)c1ccc(O)cc1	inactive	
Nc1nc(-c2cccc(NS(=O)(=O)c3ccccc3)c2)cs1	inconclusive: 35.5 µM [inhibitor, single point]	
Clc1ccc(CN2CCN(c3ncnc4scc(-c5cccs5)c34)CC2)cc1	inconclusive: 22.4 µM [inhibitor, single point]	
CC1Cc2ccccc2N1C(=O)CSC1=NCCS1 (stereo not drawn)	inactive	
CCCCCCc1cc2cc(-c3nnc(-c4ccccc4OC)o3)c(=O)oc2cc1O	inconclusive: 35.5 µM [inhibitor, single point]	
Nc1ccc(-c2ccc(C(=O)O)s2)cn1	inactive	
CC(=O)c1ccc(NC(=O)CO/N=C(\C)c2cccs2)cc1	inconclusive: 14.1 µM [activator, single point]	
CC(C)Oc1ccccc1/C=N/Nc1ccccc1[N+](=O)[O-]	inactive	
Cc1ccc(C)c(NS(=O)(=O)c2cc(C(=O)NCCC3=CCCCC3)ccc2C)c1	inconclusive: 28.2 µM [inhibitor, single point]	
CCc1ccc[n+](-c2[nH]c(=O)sc2/C=N/N=C(\N)[O-])c1		inactive: 44.8% [at 9.22 µM]

A draw from above in order of SMILES length, rising:
SMILES	Potency	activity change, negative = inhibition
Cc1cccc(OCCCCc2c(C)n[nH]c2C)c1C	inconclusive: 12.6 µM [inhibitor, partial curve, poor fit]	
O=C(Cc1cccs1)Nc1nc2c(ccc3ccccc32)s1	inactive	
CC(C)CCNCC(O)CON=C1c2ccccc2-c2ccccc21 (stereo not drawn)	inconclusive: 14.1 µM [inhibitor, single point]	
O=C1c2ccccc2C(O)(c2ncc[nH]2)N1CCc1ccccc1 (stereo not drawn)	inactive	
Cc1ccc2oc(-c3ccc(NC(=O)c4cccnc4)cc3)nc2c1	inconclusive: 35.5 µM [inhibitor, single point]	
